Laboratory results as given in article PMC10314921, “Eltrombopag directly activates BAK and induces apoptosis” (Cell Death & Disease, 2023).
No constants are given. Whether binding was seen depends on the method and setting. Some binding calls cover weakened binding; strength is not graded here. One block for each binder: values may come before it.

Columns and labels:
BAKΔTM F157A (human) = BAKΔTM F157A (human) (UniProt Q16611); assay: SEC; BAKΔTM without Eltro (DMSO control), CHAPS buffer, 1 h at 25 °C, Superdex75 on an FPLC, absorbance at 280 nm; oligomers against monomer; both purified
BAKΔTM Y108A (human) = BAKΔTM Y108A (human) (UniProt Q16611); assay: SEC; BAKΔTM incubated with Eltro (1.7 mM or 3.4 mM for the wild type; 'indicated concentrations' for the mutants), CHAPS buffer, 1 h at 25 °C, Superdex75 on an FPLC, absorbance at 280 nm; oligomers against monomer; both purified
[1] = molecular target: BAK lacking its transmembrane domain (BAKΔTM), wild type (human) (UniProt Q16611); assay: SEC; BAKΔTM without Eltro (DMSO control), CHAPS buffer, 1 h at 25 °C, Superdex75 on an FPLC, absorbance at 280 nm; oligomers against monomer; both purified
[2] = molecular target: BAK lacking its transmembrane domain (BAKΔTM), wild type (human) (UniProt Q16611); assay: SEC; BAKΔTM incubated with BID BH3 peptide (known BAK activator); size exclusion chromatography, oligomers against monomer; conditions not shown (Supplementary Figs. S1c, S4); both purified
BAKΔTM R156A (human) = BAKΔTM R156A (human) (UniProt Q16611); assay: as above
BAKΔTM D160A (human) = BAKΔTM D160A (human) (UniProt Q16611); assay: SEC; BAKΔTM without Eltro (DMSO control), CHAPS buffer, 1 h at 25 °C, Superdex75 on an FPLC, absorbance at 280 nm; oligomers against monomer; both purified
BAKΔTM H165A (human) = BAKΔTM H165A (human) (UniProt Q16611); assay: as above
BAKΔTM R156E (human) = BAKΔTM R156E (human) (UniProt Q16611); assay: SEC; BAKΔTM incubated with BID BH3 peptide (known BAK activator); size exclusion chromatography, oligomers against monomer; conditions not shown (Supplementary Figs. S1c, S4); both purified

B1: BAKΔTM F157A (domain or fragment, UniProt Q16611 16-186)
chain: EPALPSASEEQVAQDTEEVFRSYVFYRHQQEQEAEGVAAPADPEMVTLPLQPSSTMGQVGRQLAIIGDDINRRYDSEFQTMLQHLQPTAENAYEYFTKIATSLFESGINWGRVVALLGFGYRLALHVYQHGLTGFLGQVTRAVVDFMLHHCIARWIAQRGGWVAALNLGNG
- binding (BAKΔTM F157A (human)): binds

B2: BAKΔTM Y108A (domain or fragment, UniProt Q16611 16-186)
chain: EPALPSASEEQVAQDTEEVFRSYVFYRHQQEQEAEGVAAPADPEMVTLPLQPSSTMGQVGRQLAIIGDDINRRYDSEFQTMLQHLQPTAENAAEYFTKIATSLFESGINWGRVVALLGFGYRLALHVYQHGLTGFLGQVTRFVVDFMLHHCIARWIAQRGGWVAALNLGNG
- binding (BAKΔTM Y108A (human)): binds

B4: BAKΔTM R156A (domain or fragment, UniProt Q16611 16-186)
chain: EPALPSASEEQVAQDTEEVFRSYVFYRHQQEQEAEGVAAPADPEMVTLPLQPSSTMGQVGRQLAIIGDDINRRYDSEFQTMLQHLQPTAENAYEYFTKIATSLFESGINWGRVVALLGFGYRLALHVYQHGLTGFLGQVTAFVVDFMLHHCIARWIAQRGGWVAALNLGNG
- binding (BAKΔTM R156A (human)): binds

B6: BAKΔTM H165A (domain or fragment, UniProt Q16611 16-186)
chain: EPALPSASEEQVAQDTEEVFRSYVFYRHQQEQEAEGVAAPADPEMVTLPLQPSSTMGQVGRQLAIIGDDINRRYDSEFQTMLQHLQPTAENAYEYFTKIATSLFESGINWGRVVALLGFGYRLALHVYQHGLTGFLGQVTRFVVDFMLHACIARWIAQRGGWVAALNLGNG
- binding (BAKΔTM H165A (human)): binds

Further lines, results first:

- binding [1]: binds weakly
- binding [2]: binds
B3: BAK lacking its transmembrane domain (BAKΔTM), wild type (domain or fragment, UniProt Q16611 16-186)
chain: EPALPSASEEQVAQDTEEVFRSYVFYRHQQEQEAEGVAAPADPEMVTLPLQPSSTMGQVGRQLAIIGDDINRRYDSEFQTMLQHLQPTAENAYEYFTKIATSLFESGINWGRVVALLGFGYRLALHVYQHGLTGFLGQVTRFVVDFMLHHCIARWIAQRGGWVAALNLGNG

- binding (BAKΔTM D160A (human)): binds
B5: BAKΔTM D160A (domain or fragment, UniProt Q16611 16-186)
chain: EPALPSASEEQVAQDTEEVFRSYVFYRHQQEQEAEGVAAPADPEMVTLPLQPSSTMGQVGRQLAIIGDDINRRYDSEFQTMLQHLQPTAENAYEYFTKIATSLFESGINWGRVVALLGFGYRLALHVYQHGLTGFLGQVTRFVVAFMLHHCIARWIAQRGGWVAALNLGNG

- binding (BAKΔTM R156E (human)): binds
B7: BAKΔTM R156E (domain or fragment, UniProt Q16611 16-186)
chain: EPALPSASEEQVAQDTEEVFRSYVFYRHQQEQEAEGVAAPADPEMVTLPLQPSSTMGQVGRQLAIIGDDINRRYDSEFQTMLQHLQPTAENAYEYFTKIATSLFESGINWGRVVALLGFGYRLALHVYQHGLTGFLGQVTEFVVDFMLHHCIARWIAQRGGWVAALNLGNG
